Our source for the binding values is patent publication US20240327538A1.

The target in assay [1] is CD3 epsilon expressed in HEK293T cells (membrane protein screen) (Homo sapiens (Human)). The assay is described as follows: immunofluorescence FACS on HEK293T cells expressing membrane proteins.
The target in assay [2] is CD3 complex expressed in HEK293T cells (membrane protein screen). Described as above.

Results are given in words; binding and its absence hold for the method and conditions named. Binding calls can cover weak binding; strength is not graded here.

B1: AMX-500-P7 (bispecific antibody)
chain: ASSATPESGPGTSTEPSEGSAPGTSESATPESGPGSGPGTSESATPGTSESATPESGPGSEPATSGSETPGTSESATPESGPGTSTEPSEGSAPGSPAGSPTSTEEGTSESATPESGPGSEPATSGSETPGTSESATPESGPGSPAGSPTSTEEGSPAGSPTSTEEGTSTEPSEGSAPGTSESATPESGPGTSESATPESGPGTSESATPESGPGSEPATSGSETPGSEPATSGSETPGSPAGSPTSTEEGTSTEPSEGSAPGTSTEPSEGSAPGSEPATSGSETPGTSESATPEAGRSASHTPAGLTGPGTSESATPESQVQLVESGGGVVQPGRSLRLSCAASGRTFGIYVWGWVRQAPGKEREFVGAISWSGSNRKVSDSVKGRFTISRDNSKNTLYLQMNSLRAEDTAVYYCAASNKLYGRTWYDFNESDYWGQGTQVTVSSGGGGSGGGSELVVTQEPSLTVSPGGTVTLTCRSSNGAVTSSNYANWVQQKPGQAPRGLIGGTNKRAPGTPARFSGSLLGGKAALTLSGVQPEDEAVYYCALWYPNLWVFGGGTKLTVLSESATPESGPGTSPGATPESGPGTSESATPEVQLVESGGGIVQPGGSLRLSCAASGFTFSTYAMNWVRQAPGKGLEWVGRIRTKRNNYATYYADSVKGRFTISRDDSKNTVYLQMNSLKTEDTAVYYCVRHENFGNSYVSWFAHWGQGTLVTVSSGTATPESGPGEAGRSASHTPAGLTGPATPESGPGTSESATPESGPGSPAGSPTSTEEGTSESATPESGPGSEPATSGSETPGTSESATPESGPGTSTEPSEGSAPGTSTEPSEGSAPGTSTEPSEGSAPGTSTEPSEGSAPGTSTEPSEGSAPGTSTEPSEGSAPGSPAGSPTSTEEGTSTEPSEGSAPGTSESATPESGPGSEPATSGSETPGTSESATPESGPGSEPATSGSETPGTSESATPESGPGTSTEPSEGSAPGTSESATPESGPGSPAGSPTSTEEGSPAGSPTSTEEGSPAGSPTSTEEGTSESATPESGPGTSTEPSEGSAPGTSESATPESGPGSEPATSGSETPGTSESATPESGPGSEPATSGSETPGTSESATPESGPGTSTEPSEGSAPGSPAGSPTSTEEGTSESATPESGPGSEPATSGSETPGTSESATPESGPGSPAGSPTSTEEGSPAGSPTSTEEGTSTEPSEGSAPGTSESATPESGPGTSESATPESGPGTSPSATPESGPGSEPATSGSETPGSEPATSGSETPGSPAGSPTSTEEGTSTEPSEGSAPGTSTEPSEGSAPGSEPATSGSETPGTSESAGEPEA
Turning to B1, the binding result in assay [1] and in assay [2] was “binds” in each case.
